In article doi:10.1101/2020.05.18.101634:
No constants are given. Whether binding was seen depends on the method and setting. In cells and extracts the contact can be indirect. Binding calls can cover weak binding; strength is not graded here. Sequences can lack the tags named with a protein.

T1: FliM-FLAG (Borrelia burgdorferi) (UniProt Q57511)
T1 sequence: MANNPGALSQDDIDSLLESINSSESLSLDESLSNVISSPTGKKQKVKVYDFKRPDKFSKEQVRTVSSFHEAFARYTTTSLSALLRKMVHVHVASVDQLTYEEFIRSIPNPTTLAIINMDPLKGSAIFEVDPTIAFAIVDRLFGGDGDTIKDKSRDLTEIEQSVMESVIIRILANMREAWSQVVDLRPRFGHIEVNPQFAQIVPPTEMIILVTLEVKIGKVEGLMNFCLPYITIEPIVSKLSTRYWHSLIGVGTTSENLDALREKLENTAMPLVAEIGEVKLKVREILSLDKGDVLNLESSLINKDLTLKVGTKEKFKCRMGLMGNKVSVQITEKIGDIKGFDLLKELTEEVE

B1: FliM-FLAG (protein, UniProt Q57511 1-352)
chain: T1 sequence

Columns and labels:
[1] = molecular target: T1, FliM-FLAG (Borrelia burgdorferi); experiment: pull-down
[2] = molecular target: His-CheY3 (without acetyl phosphate) (Borrelia burgdorferi); experiment: pull-down

Row | Molecule | binding [1] | binding [2]
1 | His-CheY3 (without acetyl phosphate) (Borrelia burgdorferi) | binds | –
2 | B1 | – | binds weakly
